Laboratory results reported in PubChem BioAssay AID2685 (National Center for Advancing Translational Sciences (NCATS), 2010).
The campaign covered roughly 320,000 compounds. About 2,100 (0.66%) were called active. This list was built around the results that the source calls inconclusive (neither active nor inactive); the mix of calls is not that of the screen. Calls follow the shape of the dose curve; as a rule, active = well fitted inhibition curve with a large enough effect in the signal ratio, with a control signal flat (not every such curve was filed as active); inconclusive = small, poorly fitted or top-dose-only effect, or effect the other way, or a change in a side signal; inactive = flat fitted curve, though single readings scatter; the % refers to the signal ratio. Potencies beside an inconclusive call are fits to weak or partial responses and may not hold up.

Experiment: qHTS Assay for Lipid Storage Modulators in Drosophila S3 Cells
Details: BODIPY lipid droplet fluorescence, 18-24 h, cells fed with added oleic acid; lipid storage change, negative = inhibition: at 46.1 µM (top of the series) unless noted
How it was run: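 Laser-scanning cytometry quantifies lipid droplet accumulation (500–530 nm total intensity; droplet/cell object ratio) in oleic acid-fed (400 uM added) Drosophila S3 cells treated with a concentration series. 20 uM Triacsin C defined 100% inhibition.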
% is scaled to controls: 0 for no effect and ±100 for the full control effect; potency is read from the fitted curve at half-maximal effect.

Compound	lipid storage change, negative = inhibition	Potency	outcome
O=C(COc1cccc2cccnc12)NCC(F)(F)F	inconclusive: 30.6%		
CCc1noc(C)c1C(=O)Nc1nc(-c2cc(C)ccc2C)c(C)s1	inconclusive: -46.2%		
CCN(CC)C1CCS(=O)(=O)C1 (stereo not given)	inactive: 15.6%		
Cc1cc(NC(=O)COn2nnc3ccc(Cl)cc32)no1	inconclusive: 84.8%		
Cc1ccccc1OCc1nnc(SCC(=O)O)n1-c1cccc(Cl)c1		inconclusive: 29.1 µM [activator, single point]	
COc1ccc(Cc2nc3ccc(C(=O)N4CCC(N(C)C)C4)cc3o2)cc1 (stereo not given)	inconclusive: 31.9%		
NS(=O)(=O)c1ccc(CNC(=O)CCSCCC(=O)NCc2ccc(S(N)(=O)=O)cc2)cc1		inconclusive: 16.4 µM [activator, single point]	
Cc1ccc(NS(=O)(=O)c2ccc3c(c2)OCCCO3)cc1S(=O)(=O)N1CCOCC1	inconclusive: 12.5%		
Cc1nc2ccc(C(=O)OCc3nnc(-c4ccc(Br)cc4)o3)cc2nc1C	inconclusive: 43.8%		
COc1ccc(-c2noc(N3CCC(C(=O)NCCCN4CCC(C)CC4)CC3)n2)cc1		inconclusive: 29.1 µM [activator, single point]	
CCn1ncc(CNC(=O)C2(C)CC2(Br)Br)c1C (stereo not given)	inconclusive: 1.08%		
Cc1nc2ccccc2c(=O)n1NC(=O)c1ccc(F)cc1Cl	inconclusive: -6.63%		
Cc1ccc(SCCC(=O)OCC(=O)NCC2CCCCC2)cc1	inconclusive: 30.1%		
COC(=O)[C@@H]1Cc2c([nH]c3ccccc23)C(C)(C)N1C(=O)CCl	inconclusive: -16.8%		
COc1ccc(N2CCN(C(=O)CSc3nc4ccccc4c(=O)[nH]3)CC2)cc1			inactive [at 46.1 µM]
Cc1ccc(C)c(S(=O)(=O)/N=C2\C=C(NS(=O)(=O)c3ccccc3)C(=O)c3ccccc32)c1	inconclusive: 20.5%		
O=[n+]1cc(-c2ccc(Cl)cc2)n([O-])c2c1CCCCC2	inconclusive: 185%		
CCCCN(C(=O)c1cccc(S(=O)(=O)N2CCOCC2)c1)c1c(N)n(CCC)c(=O)[nH]c1=O	inconclusive: 2.97%		
COc1ccc(CCC(=O)Nc2ccc3c(c2)OCO3)cc1OC		inconclusive: 11.6 µM [activator, partial curve]	
COCCNC(=O)c1cccc(OC2CCN(Cc3ccccc3OC(F)F)CC2)c1		inconclusive: 25.9 µM [activator, partial curve]	
NC(=O)C(Cc1ccccc1)N1C(=O)c2ccccc2C1=O (stereo not given)	inactive: -19.5%		
COc1cccc(NC(=O)CN(C)C(=O)c2ccc3c(c2)C(=O)N(CCC(C)C)C3=O)c1		inconclusive: 0.651 µM [activator, full curve, poor fit]	
O=S(=O)(Cc1ccccc1)N1CCN(Cc2ccc(F)cc2Cl)CC1	inconclusive: 35%		
COc1ccc(OCc2cc(C(=O)NCCc3ccccc3)no2)c(Cl)c1	inconclusive: 61.9%		
Cn1nnnc1SCCNCc1ccccc1OCc1ccccc1	inactive: -2.39%		
CCCOc1cccc(C(=O)Nc2nnn(CCC)n2)c1		inconclusive: 0.146 µM [falling, full curve]	
Cc1ccc2nc3cc([N+](=O)[O-])cc([N+](=O)[O-])c3cc2c1		inconclusive: 18.4 µM [falling, single point]	

Compound	lipid storage change, negative = inhibition	Potency	outcome
COC1=C(OC)c2ccccc2C(C(=O)O)N/C1=C(/C)Nc1ccncc1 (stereo not given)	inconclusive: 30.8%		
CCOc1ccc(C(=O)Nc2cccc3nsnc23)cc1[N+](=O)[O-]	inconclusive: 8.1%		
CN(C)CCC(=O)NCC1OCCc2ccccc21 (stereo not given)		inconclusive: 1.46 µM [falling, partial curve, poor fit]	
COc1ccc(N2C(=O)CC(N(CCc3ccccc3)C(=O)c3ccccc3)C2=O)cc1 (stereo not given)	inconclusive: -48.2%		
O=c1c(Cl)c(O)c2cccc3c4ccccc4n1c23	inconclusive: 10.2%		
CC(=O)Nc1ccc(Nc2nnc(-c3ccc(O)cc3)c3ccccc23)cc1	inactive: 7.47%		
Cc1ccc(NC2CCCN(C(=O)c3cccc4nccnc34)C2)cc1C (stereo not given)	inconclusive: 26.6%		
O=C(COC(=O)C1CCN(c2ccc(C(F)(F)F)cn2)CC1)Nc1cc(F)ccc1F		inconclusive: 1.3 µM [activator, partial curve]	
C/C=C\C(=O)Nc1cccc(C2=NOC3(C2)C[C@@H](C(N)=O)N(C(=O)COc2ccc(Cl)cc2)C3)c1 (stereo not given in full)	inconclusive: 7.65%		
OCc1nnn(-c2ccccc2)c1CO		inconclusive: 29.1 µM [cytotoxic, single point]	
COc1ccc(NC(=O)[C@@H](NC(N)=O)C(C)C)cc1Cl		inconclusive: 18.4 µM [falling, partial curve]	
COc1ccc(N(C(=O)c2snc(C(N)=O)c2N)C(C(=O)NC2CCCC2)c2ccco2)cc1 (stereo not given)	inconclusive: 15.8%		
Cc1ccc(CN2CC(C(=O)O)CC2=O)cc1 (stereo not given)		inconclusive: 0.731 µM [falling, full curve]	
Cc1cccc(-n2cnc3cc([N+](=O)[O-])ccc32)c1	inconclusive: -2.66%		
O=C(CCC1CCCCC1)Nc1ccccc1C(=O)N1CCOCC1		inconclusive: 10.3 µM [falling, partial curve, poor fit]	
Cc1ccc(OCCCC(=O)Nc2ccc(Br)cc2)cc1	inconclusive: -5.51%		
O=S(=O)(c1ccc(-c2ccccc2)cc1)N1CCCC1	inconclusive: -51.2%		
CC1=C(C)CC(C(=O)NCCc2ccc(F)cc2)C(C(=O)O)C1 (stereo not given)		inconclusive: 4.11 µM [activator, full curve, poor fit]	
COc1ccccc1N=C1SC(C(=O)Nc2cccc(Cl)c2Cl)C(N)=C1C(N)=O (stereo not given)	inconclusive: -2.85%		
CC(OC(=O)c1cccs1)C(=O)NC1CCCCC1C (stereo not given)	inconclusive: 9.84%		
COc1ccc(NS(=O)(=O)c2cc(NC(=O)c3ccc(=O)[nH]n3)ccc2N2CCOCC2)cc1	inconclusive: -30.1%		
O=C(CN1CCCCCC1)Nc1ccc(Cl)cn1	inconclusive: -2.49%		
CC(=O)N/N=C/c1ccc(OCCOc2ccc(Br)cc2)cc1	inconclusive: 24.8%		
CC(C)C(OC(=O)c1nsc(Cl)c1Cl)C(=O)NCc1ccccc1 (stereo not given)	inconclusive: 0.413%		
O=C(NC(Cc1c[nH]c2ccccc12)c1nnc2n1CCCCC2)c1ccccc1Cl (stereo not given)		inconclusive: 2.31 µM [activator, full curve]	
O=C(N/N=C/c1ccco1)c1cc(-c2ccc(Br)s2)[nH]n1	inconclusive: -13.6%		
Cn1cnnc1SCC(=O)c1ccc2c(c1)OCO2	inconclusive: 11%		

Compound	lipid storage change, negative = inhibition	Potency	outcome
O=C1c2ccccc2NC(c2ccc(-c3cccc(Cl)c3)o2)N1O (stereo not given)	inconclusive: 216%		
CC(C)c1nc(SCC(=O)Nc2nccs2)c2ccccc2n1	inconclusive: -64.5%		
Cc1ccc(NC(=O)CN2C(=O)S/C(=C\c3ccc(C(=O)O)cc3)C2=O)cc1	inconclusive: 28.1%		
O=C(/C=C/NNC(=O)c1ccc(Cl)cc1)c1ccccc1	inconclusive: 18.1%		
O=C1c2ccccc2COc2ccc(O)cc21	inconclusive: -0.0854%		
O=C(Nc1ccccc1N1CCOCC1)c1ccccc1NS(=O)(=O)c1ccc(F)cc1		inconclusive: 3.26 µM [rising, partial curve]	
COc1ccc(-c2c(=O)n(OC)c3ccccc3[n+]2[O-])cc1OC	inconclusive: -10.7%		
Cc1cccc(C)c1NC(=O)C1NC(=O)CC1c1ccccc1 (stereo not given)	inconclusive: -7.75%		
O=C(CSc1ccccc1Cl)N1CCOCC1	inconclusive: 9.68%		
Cc1c(OCC(=O)N[C@@H](CSCc2ccccc2)C(=O)O)ccc2c3c(c(=O)oc12)CCC3	inconclusive: -4.39%		
CC(=O)Nc1ccc(S(=O)(=O)NNC(=O)CCC(=O)Nc2cc(C)ccc2C)cc1		active: 2.31 µM	
COc1ccc(/C(C)=N/NC(=O)CNC(=O)c2ccncc2)c(OC)c1		inconclusive: 0.103 µM [falling, full curve, poor fit]	
Cc1cc(C)c[n+](CC(=O)c2c(C)cc(C)c([N+](=O)[O-])c2C)c1	inconclusive: 84.2%		
COc1ccc(CNC(=O)Nc2cccc(C)c2)cc1	inconclusive: 23.1%		
CN1CCN(c2ccc(C(=O)c3ccccc3)cc2[N+](=O)[O-])CC1	inconclusive: -6.78%		
Cc1ccc(NC(=O)C(C)N2C(=O)c3ccccc3S2(=O)=O)cc1Cl (stereo not given)	inconclusive: 43.7%		
CCOc1ccc(CSCCNC(=S)Nc2ccc(OC)cc2)cc1	inconclusive: 12.7%		
Cc1noc(C)c1COc1ccc(C(=O)OCC(=O)NC23CC4CC(CC(C4)C2)C3)cc1	inconclusive: -66.7%		
Cc1cc([N+](=O)[O-])nn1CC(=O)N1CCN(Cc2ccccc2)CC1	inconclusive: 3.27%		
Cc1ccc(S(=O)(=O)N2CCC(=O)N(C(COCc3cccc(Cl)c3)C(C)C)CC2)cc1 (stereo not given)	inconclusive: 23.9%		
CN(C)c1ccccc1C(=O)c1ccccc1N(C)C	inconclusive: 111%		
O=C(CCN1C(=O)/C(=C\c2ccccc2)SC1=S)NNC(=O)c1ccncc1	inconclusive: 7.06%		
O=C(CN(C(=O)CNS(=O)(=O)c1ccc(F)cc1)c1ccccc1F)NCc1ccco1	inconclusive: 44.9%		
Cc1noc(C)c1COc1cccc(C(=O)NCc2ccccc2Cl)c1	inconclusive: -27.2%		
CN1CC(c2ccc(C#N)cc2)C2(COc3ccccc3C2=O)C12C(=O)Nc1ccccc12 (stereo not given)	inconclusive: 9.57%		
COc1cccc(CNC(=O)c2ccc(C(=O)NCc3cccc(OC)c3)cc2)c1	inactive: 16.4%		
